PubChem BioAssay AID1259308, NCATS | 2017
Assay: 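Candidate targets for better recombinant protein yield in mammalian cells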 (primary screen). Cell system: human HEK293 embryonic kidney cells stably expressing firefly luciferase (HEK-CMV-Luc2-Hygro). Reagent: single siRNA against human genes, 0.8 pmol siRNA per well. Time to read-out: 72 h. Detection: 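Reporter luminescence and viable-cell signal on separate replicate plates, given as percent of non-targeting control and median/MAD z-scores, plus per-cell luciferase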. Reading the numbers: total luciferase, z-score: higher = more reporter protein produced. Hit rule: 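Active when the median/MAD z-score for overall luciferase is greater than 3; a gene was taken forward for validation with new siRNAs if at least two of its three siRNAs passed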. Meaning of the calls: active = raised luciferase; inactive = no rise.
Here is an unselected part of about 59,000 deposited reagents. About 1,510 of all reagents (2.6%) count as active. 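Calls use total luciferase alone and ignore viability, so some active siRNAs may act by altering cell number.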 The numbers tell different reagents against one gene apart. Further read-outs or replicates are left out here. Reagent sequences are not shown.

total luciferase, z-score, by gene and reagent
PCARE (photoreceptor cilium actin regulator): #1 0.214 inactive; #2 -0.931 inactive; #3 5 active
RALBP1 (ralA binding protein 1): #1 1.33 inactive; #2 0.795 inactive; #3 0.922 inactive
CCNO (cyclin O): #1 -1.49 inactive; #2 -0.162 inactive; #3 -0.679 inactive
DISC1 (DISC1 scaffold protein): #1 2.19 inactive; #2 1.15 inactive; #3 0.0904 inactive
CDYL (chromodomain Y like): #1 1.5 inactive; #2 0.726 inactive; #3 -1.14 inactive
OR2L8 (olfactory receptor family 2 subfamily L member 8): #1 -0.944 inactive; #2 -0.751 inactive; #3 -0.517 inactive
GIPC2 (GIPC PDZ domain containing family member 2): #1 1.23 inactive; #2 -0.00707 inactive; #3 -0.414 inactive
GLTPP1 (glycolipid transfer protein pseudogene 1): #1 2.51 inactive; #2 -0.966 inactive; #3 -0.862 inactive
APOM (apolipoprotein M): #1 -0.729 inactive; #2 1.3 inactive; #3 0.207 inactive
CHML (CHM like Rab escort protein): #1 1.03 inactive; #2 -0.384 inactive; #3 0.403 inactive
MTBP (MDM2 binding protein): #1 0.372 inactive; #2 0.717 inactive; #3 -0.66 inactive
HOXB3 (homeobox B3): #1 -1.53 inactive; #2 -1.8 inactive; #3 0.731 inactive
IRAK4 (interleukin 1 receptor associated kinase 4): #1 -0.795 inactive; #2 0.991 inactive; #3 0.253 inactive
MFSD8 (major facilitator superfamily domain containing 8): #1 -0.313 inactive; #2 -0.373 inactive; #3 1.19 inactive
CTTNBP2NL (CTTNBP2 N-terminal like): #1 2.34 inactive; #2 0.132 inactive; #3 0.0495 inactive
HOXA2 (homeobox A2): #1 -0.737 inactive; #2 -0.639 inactive; #3 1.15 inactive
PLSCR3 (phospholipid scramblase 3): #1 0.542 inactive; #2 -0.487 inactive; #3 -0.705 inactive
FSIP2 (fibrous sheath interacting protein 2): #1 1.89 inactive; #2 -0.101 inactive; #3 1.82 inactive; #4 0.145 inactive; #5 -0.796 inactive; #6 2.48 inactive

Ordered by “total luciferase, z-score” (low to high): some entries from above
gene	reagent	total luciferase, z-score	activity call
HOXA2 (homeobox A2)	1	-0.737	inactive
HOXA2 (homeobox A2)	2	-0.639	inactive
CTTNBP2NL (CTTNBP2 N-terminal like)	3	0.0495	inactive
CTTNBP2NL (CTTNBP2 N-terminal like)	2	0.132	inactive
HOXA2 (homeobox A2)	3	1.15	inactive
CTTNBP2NL (CTTNBP2 N-terminal like)	1	2.34	inactive
